Laboratory results reported in PubChem BioAssay AID493014 (National Center for Advancing Translational Sciences (NCATS), 2011).
Screen size: about 340,000 compounds; about 170 (0.05%) were called active. Inconclusive means that the source gave no clear call. Such entries were picked first, then a sample of the others. The call rests on the fitted dose curve; in most records, active means well fitted inhibition curve with a large enough effect in the signal ratio, with a control signal flat (not every such curve was filed as active); inconclusive means small, poorly fitted or top-dose-only effect, or effect the other way, or a change in a side signal; inactive means flat fitted curve, though single readings scatter; the % refers to the signal ratio. Potencies beside an inconclusive call are fits to weak or partial responses and may not hold up.
Potency means the concentration at half of the fitted maximal effect.

Assay: qHTS Assay to Find Inhibitors of Chronic Active B-Cell Receptor Signaling;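 on activity change, negative = inhibition: plate controls were basal doxycycline-induced cells for no effect and cells given 10 µM MG132 for full effect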
Conditions: ABC-DLBCL IkBa-CBG/CBR reporter, luminescence ratio (green luciferase fused to IkBa over red control in TMD8 lymphoma cells), 4 h; activity change, negative = inhibition: at 46.1 µM (top of the series) unless noted
Summary of the method: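 Cell line TMD8 (human ABC DLBCL), stably expressing tet-inducible CBG68-IkBa fusion and CBR; IMDM/0.5% FBS; cpd up to 46 uM; dox induction, 4 h, 37C/5% CO2; dual luminescence; green/red ratio; MG132 control.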
For `CCC/C=N/NC(=O)c1cccc(Br)c1`, the Potency was inconclusive: 17.8 µM [falling, partial curve]. In the case of `CCOc1ccc(OCC)c(NC(=O)CSc2nnc(C3CC3)n2CC)c1`, the activity change, negative = inhibition is reported as inconclusive: 4.6%. For `Cc1ccc(C)n1-c1nc(=S)[nH][nH]1`, the activity change, negative = inhibition was “inactive”. With `Cc1ccc(-c2nn(-c3cc(Cl)ccc3[N+](=O)[O-])c(=O)c3ccccc23)cc1` the activity change, negative = inhibition was inconclusive: 14.7%. With `CCc1ccc(-c2nnn(CCC(=O)OC)n2)cc1` the activity change, negative = inhibition was inconclusive: -29.3%. In the case of `COCCn1c(Cc2ccccc2)nnc1SCC(=O)Nc1oc(C)c2c(C)n[nH]c(=O)c12`, the activity change, negative = inhibition is reported as “inactive”. In the case of `O=C(Nc1cnn(Cc2ccc(F)cc2)c1)c1cnccn1`, the activity change, negative = inhibition is reported as inconclusive: -0.805%. In the case of `NS(=O)(=O)c1ccccc1NC(=O)c1c(O)c2ccccc2[nH]c1=O`, the Potency is reported as inconclusive: 11.2 µM [falling, partial curve, poor fit]. In the case of `O=C(NN1C(=O)C2C3C=CC(O3)C2C1=O)c1cccc(O)c1` (centres undefined), the activity change, negative = inhibition is reported as inconclusive: -3.49%. With `NC(=S)N/N=C/c1cccc(O)c1O` the activity change, negative = inhibition was “inactive”. With `COc1ccc(Br)cc1/C=C/C(=O)c1ccc(NC(C)=O)cc1` the Potency was inconclusive: 5.8 µM [falling, partial curve]. In the case of `COc1ccc2nc(SCC(=O)Nc3ccccc3OC)[nH]c2c1`, the activity change, negative = inhibition is reported as inconclusive: 9.59%. For `CCc1cccc(OCCN2CCCC2)c1`, the activity change, negative = inhibition was “inactive”. For `Cc1cccc(/C=N/NC(=O)NC2CCCCC2)c1`, the activity change, negative = inhibition was inconclusive: -4.13%. With `CCC1CCC(c2nnc(-c3ccc(Br)cc3)o2)CC1` (centres undefined) the activity change, negative = inhibition was inconclusive: 6.85%. For `COc1cccc(-c2nn(-c3ccccc3)cc2CN(C)Cc2c(C)nc3ccccn23)c1`, the activity change, negative = inhibition was inconclusive: -6.72%. For `COc1ccccc1CNC(=O)CC1Sc2ccccc2NC1=O` (centres undefined), the activity change, negative = inhibition was inconclusive: -20.8%. For `Cn1nnnc1SCc1csc(C2C(C#N)=C(N)OC3=C2C(=O)CCC3)c1` (centres undefined), the Potency was inconclusive: 6.31 µM [falling, single point]. With `CCC1(CC)C(=O)NC(=O)NC1=NCCc1c[nH]c2ccccc12` the activity change, negative = inhibition was inconclusive: -0.911%. In the case of `O=C(N/N=C/c1cn(-c2cccs2)nc1-c1ccccc1)c1ccc(O)cc1`, the activity change, negative = inhibition is reported as inconclusive: 6.62%. In the case of `CC(=O)Nc1cccc(C(=O)OCc2ccc([N+](=O)[O-])cc2)c1`, the activity change, negative = inhibition is reported as “inactive”. With `CC(C)n1cnc2c(Nc3cccc(Cl)c3)nc(N(CCO)CCCO)nc21` the Potency was inconclusive: 2.82 µM [falling, partial curve]. For `O=C(NCCC1=CCCCC1)c1cnc2n(c1=O)CCS2`, the activity change, negative = inhibition was inconclusive: 5.74%. In the case of `O=C(Nc1cnccn1)c1ccc(F)cc1Cl`, the activity change, negative = inhibition is reported as “inactive”. For `Cc1ccc2c(N)c(C(=O)c3ccccc3)sc2n1`, the activity change, negative = inhibition was inconclusive: 2.2%. For `O=C(NCCN1CCOCC1)c1cc(-c2cccs2)on1`, the activity change, negative = inhibition was inconclusive: 10.2%. With `COc1ccccc1CC(=O)NCCCc1ccccc1` the activity change, negative = inhibition was inconclusive: 5.02%. In the case of `N#Cc1nc(-c2ccccc2F)oc1NCCc1ccccn1`, the activity change, negative = inhibition is reported as inconclusive: 10.1%. For `Cn1ccnc1SCC(=O)c1c(N)n(C)c(=O)n(C)c1=O`, the activity change, negative = inhibition was inconclusive: 2.44%. For `Cc1cc(/C=N/NC(=O)c2c(Br)cnn2C)c(C)n1-c1cccc(Br)c1`, the Potency was inconclusive: 29.1 µM [falling, partial curve, poor fit]. For `COc1cccc2sc(Nc3nc(-c4ccncc4)cs3)nc12`, the activity change, negative = inhibition was “inactive”. In the case of `COCCCNc1nc2c(-c3cccc(C(F)(F)F)c3)nnn2c2ccccc12`, the activity change, negative = inhibition is reported as inconclusive: 12.3%. In the case of `Cc1ccc(C(=O)ONc2ccc(N=NC(=O)c3ccccc3O)cc2)cc1`, the Potency is reported as inconclusive: 0.291 µM [rising, full curve, poor fit]. With `Brc1ccc(/C=N/Nc2ccccc2)cc1` the activity change, negative = inhibition was inconclusive: 6.03%. For `Cn1c(N)c(C(=O)CSc2nnc(-c3c[nH]c4ccccc34)n2C2CC2)c(=O)[nH]c1=O`, the activity change, negative = inhibition was inconclusive: 2.43%. For `O=C(COc1ccc(Br)cc1Cl)NC(=S)N1CCc2ccccc21`, the Potency was inconclusive: 25.9 µM [falling, single point]. In the case of `COc1ccccc1/C=N/NC(=O)c1[nH]c(C)c(C(=O)N/N=C/c2ccccc2OC)c1C`, the activity change, negative = inhibition is reported as “inactive”. For `CN(C(=O)COC(=O)c1ccc(Cl)cc1N)C1CCCCC1`, the activity change, negative = inhibition was inconclusive: 11.9%. With `C=CCNC(=O)c1ccc(Cn2c(=S)[nH]c3cc4c(cc3c2=O)OCO4)cc1` the Potency was inconclusive: 10 µM [falling, partial curve]. In the case of `S=c1[nH]nc([C@@H]2C[C@H]2c2ccccc2)n1-c1ccccc1`, the activity change, negative = inhibition is reported as inconclusive: 0.0766%. With `O=C(C[C@H]1C/C=C\CC[C@@H](Cc2ccc(F)cc2)C(=O)OC[C@H]2CCCN2C1=O)NCCO` the activity change, negative = inhibition was “inactive”. With `CCOc1ccc(NC(=O)c2sc3nc(N4CCOCC4)c4c(c3c2N)CC(C)(C)OC4)cc1` the activity change, negative = inhibition was inconclusive: -0.425%. With `Cc1cccc(N2CCN(C(=O)c3cc4c(=O)n(C)c5ccccc5c4n3C)CC2)c1C` the activity change, negative = inhibition was inconclusive: 10.9%. With `O=C(CC(C(=O)O)c1c[nH]c2ccccc12)c1ccccc1` (centres undefined) the Potency was inconclusive: 35.5 µM [rising, partial curve]. In the case of `O=C(Nc1ccc(COc2ccccc2)cc1)Oc1ccccc1N1CCOCC1`, the Potency is reported as inconclusive: 0.562 µM [falling, full curve]. With `O=C1Nc2ccccc2C12OCCCO2` the activity change, negative = inhibition was inconclusive: 2.5%. With `Cc1cc(C(=O)NN=C2CCCC2)c2ccccc2n1` the activity change, negative = inhibition was inconclusive: -5.93%. In the case of `Cc1ccc(S(=O)(=O)Nc2cccc3ncccc23)cc1`, the activity change, negative = inhibition is reported as “inactive”. With `CCOC(=O)c1c(C)[nH]c(O)c1C=Nc1ccccc1` the Potency was inconclusive: 1 µM [rising, full curve]. For `NS(=O)(=O)c1ccc(NC(=S)NCc2ccco2)cc1`, the Potency was inconclusive: 8.91 µM [falling, partial curve, poor fit]. With `O=C(CSc1cc([N+](=O)[O-])cc(S(=O)(=O)Cc2ccccc2)c1)NC1CC1` the activity change, negative = inhibition was “inactive”. For `COc1ccccc1CNC(=O)c1cccc(S(=O)(=O)N2CCN(c3ccc(F)cc3)CC2)c1`, the activity change, negative = inhibition was “inactive”. With `CC1=CC(=O)C(C(C)C)=C/C1=C(\c1cc(C(C)C)c(OP(=O)(O)O)cc1C)c1ccccc1C(=O)O` the activity change, negative = inhibition was inconclusive: 4.03%. For `CC(C)(C)c1cccc(P(=O)(c2ccccc2)c2ccccc2)c1O`, the Potency was inconclusive: 0.1 µM [falling, full curve, poor fit].
